# Laboratory results taken from the supplement of paper PMC8007513.
# Some of the results follow. Many values rest on one well or one pass, so single values are uncertain.
# System: Saccharomyces cerevisiae BY4743
# Experiment: growth (OD600) relative to untreated control; higher = less growth inhibition
# Settings: compound concentration: 133 uM; 20 h
# Experimental: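 NMCCC compounds (133 uM, no IPBC) tested alone against Saccharomyces cerevisiae BY4743 in YPD, 96-well plates, starting OD600 ~0.1. Growth was read as OD600 at 20 h and expressed as % of the untreated control. Single pass.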
row,Compound,growth
1,CCOC(=O)c1ccccc1NS(=O)(=O)c1ccc(S(=O)(=O)N2CCCC2)cc1,93.3%
2,COC(=O)CCN1C(=O)\C=C(\C)C2=C[N](C)N=C12,101%
3,CCOc1ccc(Oc2ccc(NC(=O)c3cc(S(=O)(=O)NC(C)C)cn3C)cc2)cc1,93%
4,COc1ccc(NC(=O)c2cccnc2O)cc1N1CCCCC1=O,77.2%
5,CCOC(=O)N1CCN(C(=O)CNS(=O)(=O)c2ccc(Cl)c(C(F)(F)F)c2)CC1,72.7%
6,CC(NC(=O)CSc1ncc(-c2ccccc2)nn1)c1ccccc1 (stereo not given),111%
7,Cc1c(C)n(C(=O)CSc2nc[nH]n2)c2ccccc12,95.8%
8,FC(F)(F)CNC(=O)C1=CC=CC=C1NC(=O)CN2C(=O)\C=C/N(CC3=CC=CC=C3)C2=O,106%
9,CCn1cnnc1CNC(=O)NCc1ccc(NC(=O)C(F)(F)F)cc1,105%
10,COC(=O)C(OC(=O)c1ccc(Cn2cncn2)cc1)c1ccccc1 (stereo not given),108%
11,Cn1cc(S(=O)(=O)N2CCOCC2)cc1C(=O)NCc1ccc(C(F)(F)F)cc1,116%
12,CCC1Sc2ccc(S(=O)(=O)CCC(=O)Nc3ccc(C(C)=O)cc3)cc2NC1=O (stereo not given),108%
13,CC(C)CCNC(=O)C(Cc1ccccc1)NS(=O)(=O)c1ccc2c(c1)c(=O)n(C)c(=O)n2C (stereo not given),112%
14,CCOC(=O)c1cc(C)n(-c2ccc(C(=O)N3CCN(C(=O)OCC)CC3)cc2)c1C,94.8%
15,Cc1ccc(S(=O)(=O)N(C)c2c(C)ccc(S(=O)(=O)N3CCCC3)c2C)cc1,90.6%
16,CCOC(=O)C1CCN(C(=O)c2ccc(OC)c(S(=O)(=O)NC)c2)CC1,96.6%
17,COc1ccc(Cc2nnc(SCC(N)=O)n2-c2ccccc2)cc1Cl,105%
18,Cc1cnc(NC(=O)CSc2nnc(CN3CCOCC3)n2C)s1,101%

row,Compound,growth
1,Cn1cc(CCNC(=O)NC2CCOc3ccccc32)cn1 (stereo not given),96.9%
2,CCOC(=O)COc1ccc2c(c1)c(C(C)=O)c(C)n2-c1ccc(Cl)cc1,57%
3,CCC(=O)N1CCc2cc(Br)c(S(=O)(=O)N3CCN(CC)CC3)cc21,95.4%
4,CN1CCc2nc(SCc3cccc(C(F)(F)F)c3)c(C#N)cc2C1,106%
5,NC(=O)c1cc(Cl)ccc1OCc1nc(-c2ccsc2)no1,93.7%
6,Cn1nc(C(C)(C)C)cc1NC(=O)COc1ccc(Oc2ccccn2)cc1,112%
7,Cc1ccc(C(=O)Nc2ccc(-c3nccs3)cc2)s1,91.4%
8,CC(C)c1csc(NC(=O)c2cnn(-c3ccccc3)c2)n1,94%
9,CCOC(=O)c1cc(S(=O)(=O)N(C)CC(=O)Nc2cccc(C)n2)cn1C,104%
10,COC(=O)C[C@H](NC(=O)N1CCSCC1c1ccc(OC)cc1)C(=O)OC (stereo not given in full),103%
11,COC(=O)C1C\C(=N/O1)C2=C[N](C)N=C2C (stereo not given),102%
12,CNc1snc(C)c1C(=O)OCc1coc(-c2cccs2)n1,101%
13,CCn1c(SCC(=O)O)nc2c(=O)n(C)c(=O)n(C)c21,104%
14,COc1cc(OC)cc(-c2nnc(SCC(=O)N3CCOCC3)o2)c1,97.1%
15,Cc1nc(C)c(C(=O)OCc2ccc(C#N)cc2)s1,86%
16,Cc1cccc(N2CCN(S(=O)(=O)c3cc(Br)cnc3N)CC2)c1C,109%
17,COc1ccc(C(CNC(=O)c2ccc(NS(=O)(=O)c3ccc(F)c(C)c3)cc2)N(C)C)cc1 (stereo not given),110%

# Among those listed so far, these have a cyano group.
row,Compound,growth
4,CN1CCc2nc(SCc3cccc(C(F)(F)F)c3)c(C#N)cc2C1,106%
15,Cc1nc(C)c(C(=O)OCc2ccc(C#N)cc2)s1,86%
